PubChem BioAssay AID686938 – Drosophila RNAi Screening Center | 2013
In all, the deposit lists about 23,000 reagents; below is an unselected part of those that have a named target and a result. Of all reagents, 75 (0.33%) are marked active. 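Raw plate signals without normalisation; calls rest on plate z-scores that were not deposited; ratio present for only 364 wells.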 A plus sign joins genes that one reagent is predicted to hit. The record does not give: the dose of the treatment.

Purpose: 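Looking for CRAC channel components and the factors controlling them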 (primary screen)
Cell system: Drosophila S2R+ cells
Knock-down reagent: long dsRNA against Drosophila genes, about 0.25 µg dsRNA per well, roughly 10,000 cells
Duration: 5 days of knock-down before the calcium assay
Treatment: thapsigargin (SERCA pump blocker) to empty calcium stores; entry signal taken 4 min after adding it
Read-out: 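Per-well fluo-4 fluorescence in two replicates, unnormalised, measured in resting cells and 4 min after store depletion by the SERCA blocker thapsigargin; ratio of the two present in few wells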
Reading the numbers: calcium entry signal: higher = stronger calcium signal after store depletion; entry to resting ratio: higher = more calcium entry relative to resting level; resting calcium signal: higher = higher resting calcium signal
Rule for the call: 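Called when the plate z-score of the entry-to-rest ratio, mean of duplicates, falls below −3; wells with low overall dye signal (Fmax z below −2) or more than five off-targets excluded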
Meaning of the calls: active = strongly reduced calcium entry; inactive = no strong reduction

| gene | dsRNA | calcium entry signal, replicate 1 (fluorescence units) | calcium entry signal, replicate 2 (fluorescence units) | entry to resting ratio | resting calcium signal, replicate 1 (fluorescence units) | resting calcium signal, replicate 2 (fluorescence units) | Outcome |
| --- | --- | --- | --- | --- | --- | --- | --- |
| CG2004 | DRSC18200 | 3.72e7 | 3.86e7 | – | 1.86e7 | 1.85e7 | inactive |
| CG10710 | DRSC09784 | 3.01e7 | 4.68e7 | – | 1.51e7 | 2.14e7 | inactive |
| CG11912 | DRSC00332 | 4.36e7 | – | – | 1.97e7 | – | inactive |
| CG15358 | DRSC00388 | 2.83e7 | 3.12e7 | – | 1.36e7 | 1.41e7 | inactive |
| CNMaR | DRSC08992 | 6.79e7 | 5.10e7 | – | 3.45e7 | 2.35e7 | inactive |
| CNMaR | DRSC10224 | 2.77e7 | 3.81e7 | – | 1.41e7 | 1.62e7 | inactive |
| CG30054 | DRSC05354 | 4.93e7 | 4.03e7 | – | 2.03e7 | 1.73e7 | inactive |
| CG13081 | DRSC02185 | 4.71e7 | 4.64e7 | – | 2.09e7 | 1.85e7 | inactive |
| CG32448 | DRSC22657 | 4.13e7 | 3.38e7 | – | 2.27e7 | 1.62e7 | inactive |
| Tsen2 | DRSC01557 | 2.54e7 | 4.15e7 | – | 1.48e7 | 1.78e7 | inactive |
| betaGlu | DRSC15419 | 3.95e7 | 4.07e7 | – | 1.77e7 | 1.85e7 | inactive |
| Pa1 | DRSC19422 | 2.78e7 | 4.33e7 | – | 1.43e7 | 2.12e7 | inactive |
| Aldh | DRSC02717 | 3.62e7 | 5.52e7 | – | 1.73e7 | 2.34e7 | inactive |
| Myo10A | DRSC19758 | 3.88e7 | 4.89e7 | – | 1.91e7 | 2.46e7 | inactive |
| Myo10A | DRSC19834 | 4.62e7 | 4.05e7 | – | 2.15e7 | 1.71e7 | inactive |
| Myo10A | DRSC19837 | 3.55e7 | 5.36e7 | – | 1.69e7 | 2.24e7 | inactive |
| Myo10A | DRSC23140 | 3.73e7 | 4.48e7 | – | 1.95e7 | 2.06e7 | inactive |
| CG33770 | DRSC11717 | 3.12e7 | 4.60e7 | – | 1.50e7 | 2.00e7 | inactive |
| CG30275 | DRSC04163 | 3.97e7 | 4.31e7 | – | 1.95e7 | 1.88e7 | inactive |
| CG13198 | DRSC06323 | 3.20e7 | 3.57e7 | – | 1.66e7 | 1.87e7 | inactive |
| Rpn8 | DRSC04624 | 2.12e7 | 2.29e7 | – | 1.62e7 | 1.52e7 | inactive |
| Skp2 | DRSC12329 | 2.78e7 | 3.97e7 | – | 1.40e7 | 2.76e7 | inactive |
| CG16826 | DRSC02527 | 2.59e7 | 1.67e7 | – | 1.39e7 | 8.05e6 | inactive |
| CG33775 | DRSC05353 | 4.26e7 | 3.79e7 | – | 2.02e7 | 1.58e7 | inactive |
| CG33229 | DRSC07863 | 3.94e7 | 2.96e7 | – | 1.71e7 | 1.25e7 | inactive |
| Rab1 | DRSC16808 | 1.40e7 | 1.87e7 | – | 1.07e7 | 1.17e7 | active |
| Boot | DRSC06412 | 3.39e7 | 3.18e7 | – | 1.57e7 | 1.41e7 | inactive |
| Miga | DRSC17821 | 3.16e7 | 4.06e7 | – | 1.63e7 | 1.89e7 | inactive |
| CG7202 | DRSC11818 | 2.65e7 | 3.23e7 | – | 1.28e7 | 1.52e7 | inactive |
| CG15056 | DRSC19630 | 4.35e7 | 2.94e7 | – | 2.35e7 | 1.45e7 | inactive |
| mthl4 | DRSC06998 | 5.34e7 | 5.37e7 | – | 2.06e7 | 2.48e7 | inactive |
| CG31683 + CG18858 | DRSC02703 | 3.98e7 | 4.94e7 | – | 1.94e7 | 2.01e7 | inactive |
| Alg10 | DRSC10892 | 2.94e7 | 4.77e7 | – | 1.47e7 | 2.09e7 | inactive |
| dnk | DRSC16933 | 2.95e7 | 3.51e7 | – | 3.93e7 | 1.64e7 | inactive |
| CG34129 | DRSC15960 | 2.73e7 | 7.28e7 | – | 1.55e7 | 3.42e7 | inactive |
| CG18266 | DRSC02659 | 4.48e7 | – | – | 2.10e7 | – | inactive |
| PIG-O | DRSC06123 | 4.07e7 | 4.34e7 | – | 1.85e7 | 1.97e7 | inactive |
| CG9570 | DRSC20687 | 5.80e7 | 3.88e7 | – | 2.77e7 | 1.71e7 | inactive |
| Mal-A1 | DRSC07461 | 4.01e7 | 4.20e7 | – | 1.91e7 | 2.01e7 | inactive |
| CG32855 | DRSC13131 | 2.31e7 | 2.14e7 | – | 1.11e7 | 1.06e7 | inactive |
| CG3999 | DRSC15534 | 2.88e7 | 2.60e7 | – | 1.52e7 | 1.48e7 | inactive |
| lncRNA:CR41443 | DRSC07733 | 3.85e7 | 3.80e7 | – | 1.72e7 | 1.83e7 | inactive |
| RpL27 | DRSC15638 | 1.17e7 | 1.06e7 | – | 9.03e6 | 6.87e6 | inactive |
| sgg | DRSC17228 | 4.86e7 | 4.85e7 | – | 2.49e7 | 2.19e7 | inactive |
| sgg | DRSC17722 | 5.27e7 | 4.91e7 | – | 2.77e7 | 2.16e7 | inactive |
| sgg | DRSC18832 | 3.68e7 | 5.89e7 | 1.9 | 1.93e7 | 2.27e7 | inactive |
| Mid1 | DRSC04230 | 4.56e7 | 5.97e7 | – | 2.37e7 | 2.48e7 | inactive |
| Mid1 | DRSC04231 | 4.70e7 | 3.83e7 | – | 2.29e7 | 2.00e7 | inactive |
| Mid1 | DRSC04308 | 4.60e7 | 3.83e7 | – | 2.28e7 | 1.99e7 | inactive |
| Mid1 | DRSC22773 | 4.46e7 | 3.16e7 | – | 2.40e7 | 1.69e7 | inactive |
| Mid1 | DRSC22803 | 3.41e7 | 3.72e7 | – | 1.70e7 | 1.77e7 | inactive |
| mid | DRSC02977 | 2.57e7 | 4.09e7 | – | 1.30e7 | 1.85e7 | inactive |
| mid | DRSC21493 | 3.12e7 | 3.31e7 | – | 1.65e7 | 1.46e7 | inactive |
| CG8149 | DRSC16391 | 3.27e7 | 3.20e7 | – | 1.65e7 | 1.59e7 | inactive |
| CG44837 | DRSC10133 | 2.14e7 | 3.05e7 | – | 1.33e7 | 1.75e7 | inactive |
| CG44837 | DRSC10558 | 2.73e7 | 4.07e7 | – | 1.49e7 | 1.74e7 | inactive |
| Efhc1.2 | DRSC06027 | 3.16e7 | 2.74e7 | – | 1.45e7 | 1.30e7 | inactive |
| Cdc5 | DRSC08577 | 2.46e7 | 2.16e7 | – | 1.61e7 | 1.51e7 | inactive |

Limited to “resting calcium signal, replicate 1 (fluorescence units)” (10 entries from above):
Skp2 [DRSC12329] = 1.40e7
CG16826 [DRSC02527] = 1.39e7
CG33775 [DRSC05353] = 2.02e7
CG33229 [DRSC07863] = 1.71e7
Rab1 [DRSC16808] = 1.07e7
Boot [DRSC06412] = 1.57e7
Miga [DRSC17821] = 1.63e7
CG7202 [DRSC11818] = 1.28e7
CG15056 [DRSC19630] = 2.35e7
mthl4 [DRSC06998] = 2.06e7
